Screen size: about 360,000 compounds; about 780 (0.22%) were called active. This list was built around the results that the source calls inconclusive (neither active nor inactive); the mix of calls is not that of the screen. Cut-off read from the data, not from the text of the source: active = inhibition above about 35% (passing the limit was not always enough); inconclusive = no clear call, values can overlap the other calls.
Tested on: Botulinum neurotoxin type F light chain protease (Clostridium botulinum)
Experiment: BoNT/F light chain protease inhibitors, primary screen, biochemical, flow cytometry, MLPCN library (AID 588497); note: plate controls were buffer without enzyme for full effect and enzyme alone for no effect
Conditions: Multiplex microsphere protease cleavage assay, at 10 µM, stronger effect = higher value

Compound | inhibition
CC(=O)NC(C)(c1ccccc1)c1nc(-c2cnc3ccccc3c2)cs1 (stereo not drawn) | inactive: 2%
COc1ccc(OC)c(-n2nnnc2SCC(=O)Nc2ccccc2OC)c1 | inconclusive: 3.1%
Cc1cc(C(F)(F)F)c2c(n1)sc1c(O)cc(=O)[nH]c12 | inactive: -6.1%
Cc1ccc(C)c(N2CCN(S(=O)(=O)c3cc4c(cc3Cl)NC(=O)CO4)CC2)c1 | inactive: -6.2%
Nc1ccccc1SCc1csc(-c2ccc(Cl)cc2)n1 | inconclusive: -9.8%
CC(OC(=O)CC1CCCC1)C(=O)Nc1ccc(S(N)(=O)=O)cc1 (stereo not drawn) | inactive: 12.6%
COc1cccc(CN2CCC(C(=O)Nc3ccc(-c4cccc(C)c4)cc3)CC2)c1O | inconclusive: -50%
CC(/C=N/NC(=O)c1cccnc1)=C\c1ccccc1 | inactive: -0.5%
O=C(O)COCc1nc2ccccc2[nH]1 | inactive: -0.7%
COC(=O)/C(C#N)=C/c1c(Oc2cccc(C)c2C)nc2ccccn2c1=O | inconclusive: -66.8%
O=C(COc1ccccc1)N(Cc1cccs1)C1CCS(=O)(=O)C1 (stereo not drawn) | inconclusive: 76.8%
O=C(CN1CCCC1)N1c2ccccc2Sc2ccc(C(F)(F)F)cc21 | inactive: -3.4%
CC(/C=C1\SC(=S)N(NC(=O)c2cccc(O)c2)C1=O)=C\c1ccccc1 | inactive: 4.9%
COc1ccccc1N1CCN(C(=O)/C=C/c2cccc([N+](=O)[O-])c2)CC1 | inconclusive: -60.4%
COc1ccc(S(=O)(=O)NCc2cccnc2)cc1C | inconclusive: 3.9%
CCOC(=O)/C(C#N)=C/c1c(Oc2cccc(C)c2)nc2ccccn2c1=O | inconclusive: 38.2%
CC(=O)N(C)N(C)c1cc(C)nc(N)n1 | inconclusive: -26.4%
Cc1nc(-c2ccccn2)nc(N2CCOCC2)c1Cl | inconclusive: -23.6%
Cc1cc(C(=O)NCc2cccs2)nn1C | inconclusive: -27.8%
Cc1ccc(-c2c[n+](CC(=O)Nc3ccccc3)c3n2CCC3)cc1 | inconclusive: -16.9%
Cc1cc(Br)c(NC(=O)COC(=O)c2ccc[n+]([O-])c2)c(Br)c1 | inactive: 2%
Cc1cc2sc3nc(=O)n(-c4ccccc4)c(=O)n3c2cc1C | inconclusive: 44.5%
CCOC(=O)Cn1c2ccc(OC)cc2c2nc3ccccc3nc21 | inactive: 6.8%
Cc1ccccc1Nc1ncnc2c1cnn2C | inconclusive: -2.4%

Pulled by structure from the list above, 2 records:
Compound | inhibition
O=C(COc1ccccc1)N(Cc1cccs1)C1CCS(=O)(=O)C1 (stereo not drawn) | inconclusive: 76.8%
CC(=O)N(C)N(C)c1cc(C)nc(N)n1 | inconclusive: -26.4%

Additional records:

Compound | inhibition
Cn1cc(CC(=O)NCCCN2CCCC2)c2ccccc21 | active: 35.9%
CC(C)NC(=O)CN1C(=O)c2cccc3cccc1c23 | inconclusive: -19.5%
O=C(O)c1cc(Cl)c(Cl)cc1C(=O)N(Cc1ccccc1)Cc1ccccc1 | inconclusive: 16.2%
CC1(NC(=O)Nc2ccccc2)CCS(=O)(=O)C1 (stereo not drawn) | inconclusive: -16.5%
CN(C)/C(Cn1cncn1)=C1/N=C(c2c(F)cccc2F)OC1=O | inactive: -5.8%
COc1ccccc1-c1c(NC(=O)C(C)C)n(C)c2ccccc2c1=O | inconclusive: 180%
O=C(O)c1cc(NCc2ccccc2C(F)(F)F)ccc1N1CCOCC1 | inactive: -1.6%
CCOc1ccccc1NC(=S)N1CCN(c2ccc(OC)cc2)CC1 | inconclusive: 15.1%
O=C(COc1ccc(Cl)cc1Cl)NNC(=S)NC(=O)c1ccco1 | inconclusive: -77.5%
CC(C)(C)c1ccc(C(=O)NNc2ccc(F)cc2F)cc1 | inconclusive: -7.8%
Cc1cc(S(=O)(=O)NCCC2=CCCCC2)ccc1Br | inconclusive: -0.4%
CCOC(=O)C1CCN(C(=O)Cc2ccc(-c3ccccc3)cc2)CC1 | inconclusive: 4.2%
Cc1ccc(S(=O)(=O)C2(S(=O)(=O)c3ccc(C)cc3)CC2)cc1 | inactive: -9.1%
Cc1cccc(N=C2NC(=O)/C(=C/c3cccn3C)S2)c1C | inconclusive: -12.8%
Cc1ccc2scc(CN3CCCC3)c2c1 | inconclusive: -14.4%
C=CCn1c(NCc2ccccc2OC)nc2ccccc21 | inconclusive: 0%
O=C(N/N=C\c1cccc(Br)c1)c1ccccc1-n1cccc1 | inconclusive: -27.6%
CCN(CC)c1ccc(NC(=O)c2ccc(Br)o2)c(C)c1 | inactive: -2.7%
NCc1ccccc1CS(=O)(=O)N1CCOCC1 | inactive: 1.5%
O=C(NCCCCc1ccccc1)c1cccc(Br)c1 | inconclusive: -9.4%
COc1ccc(NC2=Nc3ccccc3N3C2=Nc2c(c(C)nn2-c2ccc(C)cc2)C3c2cccnc2)cc1 (stereo not drawn) | active: 43.9%
COc1ccc2[nH]c(C(=O)Nc3cccc(C)n3)cc2c1 | inconclusive: -81.3%
CN(C(=O)COC(=O)COc1ccc(Cl)cc1Cl)c1c(N)n(Cc2ccccc2)c(=O)[nH]c1=O | inactive: -2.7%
COc1cc(C(=O)NCc2nnc(SCC(=O)N3CCCCC3)o2)cc(OC)c1OC | inconclusive: 4.2%

Five structures from above, arranged by SMILES length, falling:
Compound | inhibition
CN(C(=O)COC(=O)COc1ccc(Cl)cc1Cl)c1c(N)n(Cc2ccccc2)c(=O)[nH]c1=O | inactive: -2.7%
Cc1ccc(S(=O)(=O)C2(S(=O)(=O)c3ccc(C)cc3)CC2)cc1 | inactive: -9.1%
CCOC(=O)C1CCN(C(=O)Cc2ccc(-c3ccccc3)cc2)CC1 | inconclusive: 4.2%
Cc1cccc(N=C2NC(=O)/C(=C/c3cccn3C)S2)c1C | inconclusive: -12.8%
O=C(NCCCCc1ccccc1)c1cccc(Br)c1 | inconclusive: -9.4%

(listing goes on)

Compound | inhibition
CCn1cc(C(=O)NCc2ccc(OC)cc2)c(=O)c2ccc(C)nc21 | inconclusive: -11%
COC(=O)c1nnn(-c2cccc(Cl)c2)c1C(=O)OC | inconclusive: 28.4%
Cc1c(Cl)cccc1-n1cnc(=O)c2ccccc21 | inconclusive: 34.8%
O=C(COc1ccccc1)NCC(=O)Nc1ccc(S(=O)(=O)NCc2ccco2)cc1 | inconclusive: -39.4%
COC1Cc2ccccc2N(C(N)=O)c2ccccc21 (stereo not drawn) | inconclusive: 66.6%
Cc1ccc2c(c1)-c1c(cnn1CC(=O)NC(C)CCc1ccco1)CO2 (stereo not drawn) | inactive: -11.9%
Cc1ccc(C(=O)/C=C/c2cn(CN3CCN(C)CC3)c3ccccc23)cc1 | inactive: -2.4%
Cc1ccc(S(=O)(=O)CCN2C=CC(C(F)(F)F)=NCC2)cc1 | inconclusive: 13.2%
Cc1noc(C)c1S(=O)(=O)Nc1cc(C(F)(F)F)ccc1N1CCOCC1 | inconclusive: -33.6%
COc1cc(/C=C2\C(=N)N3N=C(S(C)(=O)=O)SC3=NC2=O)cc(OC)c1OCCOc1ccccc1C | inconclusive: -18%
CCOc1ccc2[nH]c(=O)c(=O)[nH]c2c1 | inactive: -4.1%
CCCCc1nc(Cl)c(C#N)c2c1CCC2 | inconclusive: -10.8%
O=C(Nc1ccc(Cl)cc1)N1CCN(c2ccccc2)CC1 | inconclusive: 5.9%
CN(C(=O)c1ccno1)c1nnc(-c2cnccn2)s1 | inconclusive: -37.6%
N#Cc1ccc(C(=O)Nc2cc(-c3ccc(F)cc3)nn2-c2ccccc2)cc1 | inactive: -3.8%
CCN(CC)C(=O)c1cccc(-c2csc(C(C)(NC(C)=O)c3ccc(OC)cc3)n2)c1 (stereo not drawn) | inactive: -3.2%
CCN(CC)CCCNC(=O)c1ccc(Cl)c(S(=O)(=O)Nc2ccccc2OC)c1 | inconclusive: 8.5%
Nn1c(SCC(=O)Nc2ccc3c(c2)OCO3)nnc1-c1ccccc1 | active: 56.8%
CN1CCc2c(sc(NC(=O)c3ccc4ccccc4c3)c2C(N)=O)C1 | inconclusive: 5.1%
CCOC(=O)c1c(C)nn(-c2ncccc2NC(=O)NC(C)C)c1C | inconclusive: 6.8%
CCC(C)Nc1nc(-c2c[nH]c3ccccc23)cs1 (stereo not drawn) | inconclusive: 127%
CC(=O)c1ccc(OCCCCOc2ccc(C(C)=O)cc2)cc1 | inconclusive: 26.2%
CSCCC(NC(=O)c1ccco1)C(=O)OCC(=O)N(Cc1ccccc1)C(C)(C)C (stereo not drawn) | inconclusive: 21.4%
Clc1ccc(OCCOCCN2CCCCC2)c(Br)c1 | inconclusive: -3%

Compound | inhibition
O=C(O)c1cn(C2CCCCC2)c2ccccc2c1=O | inconclusive: 10.9%
Cc1cccc(C2C3=C(CCCC3=O)N=C3c4ccccc4C(=O)C32)c1 (stereo not drawn) | inconclusive: -4.2%
Cc1csc(C)[n+]1CC(=O)c1ccccc1 | active: 48.5%
Cc1ccnc(NC(=O)c2ccc(NC(=O)CC3SC(N4CCCC4)=NC3=O)cc2)c1 (stereo not drawn) | inconclusive: 15.5%
C=CCOC(=O)C1=C(C)OC(N)=C(C#N)C12C(=O)N(CN1CCOCC1)c1ccccc12 (stereo not drawn) | inconclusive: -14.8%
O=C1C2CC=CCC2C(=O)N1c1n[nH]c(CCc2ccccc2)n1 (stereo not drawn) | inactive: 7.1%
CC(C)CN(C(=O)CSc1nnc(C2CC2)n1-c1ccccc1)C1CCS(=O)(=O)C1 (stereo not drawn) | inactive: -4%
CCn1nnnc1SCC(=O)NC1Cc2ccccc2C1 | inconclusive: 44.6%
Cn1ncc(S(=O)(=O)Cc2ccccc2)c(Cl)c1=O | inconclusive: 44.4%
C(=N\Nc1nc2ccccc2s1)/c1ccco1 | inactive: -1.3%
COc1ccc(/C(C)=N/NC(=S)Nc2cc(C)ccc2C)cc1 | inactive: -9.1%
NS(=O)(=O)c1ccc(CCNC(=O)c2ccccc2-c2ccccc2)cc1 | inactive: -11.5%
Cc1ccc(S(=O)(=O)N2CCN(c3nc(-c4cccs4)nc4ccccc34)CC2)cc1 | inactive: 3.6%
O=S(=O)(NCC1CCCO1)c1ccc(Cl)cc1 (stereo not drawn) | inconclusive: -16.2%
CC(C)n1c(N2CCN(S(=O)(=O)c3cccc([N+](=O)[O-])c3)CC2)nc2ccccc21 | inconclusive: 15.2%
CCNC(=O)N(C)[C@H]1C[C@H]2c3[nH]c4ccccc4c3CCN2C[C@H]1[C@H](C)O | inactive: -2.7%
COc1ccc(Cc2nnc(SCC(=O)N3CCN(c4ccccc4)CC3)o2)cc1 | inactive: -10.9%
O=S(=O)(c1ccccc1)N1CCN(CCc2ccccc2)CC1 | inconclusive: 38.3%
O=C(C1CCCN(Cc2ccc(F)cc2)C1)N1CCCCC1 (stereo not drawn) | inconclusive: -36%
Cc1ccc(C(=O)COC(=O)CNC(=O)Cc2ccccc2)cc1[N+](=O)[O-] | inconclusive: -27.5%
c1ccc2c(Cn3ccnc3)cccc2c1 | inconclusive: -27.6%

— PubChem BioAssay AID588497 (NMMLSC, 2011)
